Results taken from patent publication US20240358767A1, “STEM CELL DIFFERENTIATION AND CHEMICAL COMPOUNDS” (VERTEX PHARMACEUTICALS INCORPORATED, priority 2021, published 2024).

Tested on: Stem cells

## Nc1ccc(C(=O)Nc2cccc(-c3nc(N4CCOCC4)c4oc5ncccc5c4n3)c2)cn1 [YM201636]
  nuclear blebbing in the resulting cell population: not to induce
